Patent US9580430B2, “9H-pyrimido[4,5-B]indoles and related analogs as BET bromodomain inhibitors” (THE REGENTS OF THE UNIVERSITY OF MICHIGAN, priority 2014, dated 2017)

System: RWPE and PC3 cells overexpressing ERG
Test: Matrigel invasion assay, RWPE and PC3 cells overexpressing ERG
Type: cell-based
Conditions: 500 nM
Experimental: Medium containing 10% FBS in the lower chamber served as chemoattractant. After 48 h, the non-invading cells and EC matrix were gently removed with a cotton swab and invasive cells located on the lower side of the chamber were stained with crystal violet, air dried and photographed. For colorimetric assays, the inserts were treated with 150 μl of 10% acetic acid and the absorbance measured at 560 nm using a spectrophotometer (GE Healthcare).

CCNC(=O)C[C@@H]1N=C(c2ccc(Cl)cc2)c2cc(OC)ccc2-n2c(C)nnc21 [I-BET762]
ERG-mediated invasion: attenuation of ERG-mediated invasion
